Binding data for three molecules are collected here from US20250304621A1, “POLYPEPTIDE FOR SPECIFICALLY BLOCKING BINDING OF ACVR1C TO GREM1 AND USE THEREOF” (The Seventh Affiliated Hospital, Sun Yat-Sen University, priority 2024, published 2025).

These are yes or no findings as the source states them, for the method shown. For some of these results: In cells and extracts the contact can be indirect. Some results given as binding are weak or reduced against the parent protein; the word gives no strength. For some of these results: Sequences can lack the tags named with a protein.

Assay [1] concerns the target T1, ACVR1C (activin receptor type-1C) (human) (UniProt Q8NER5).
T1 sequence (looked up): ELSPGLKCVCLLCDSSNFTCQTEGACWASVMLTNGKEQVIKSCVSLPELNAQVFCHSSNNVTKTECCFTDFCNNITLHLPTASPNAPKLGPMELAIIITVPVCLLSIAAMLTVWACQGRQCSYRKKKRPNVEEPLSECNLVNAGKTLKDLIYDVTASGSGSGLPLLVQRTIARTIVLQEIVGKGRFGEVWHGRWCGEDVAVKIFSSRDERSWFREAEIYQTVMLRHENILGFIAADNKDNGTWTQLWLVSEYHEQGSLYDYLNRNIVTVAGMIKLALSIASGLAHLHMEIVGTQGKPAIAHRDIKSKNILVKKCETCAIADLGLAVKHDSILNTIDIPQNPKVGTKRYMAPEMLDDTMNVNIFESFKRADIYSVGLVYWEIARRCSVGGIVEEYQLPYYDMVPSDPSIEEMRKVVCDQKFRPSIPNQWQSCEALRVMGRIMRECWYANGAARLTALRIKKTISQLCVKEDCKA
The experiment in a line: co-IP with Ha-tagged GREM1 in HCT116 cells, immunoblot (FIG. 3). On the technique in general: A western blot detects proteins with antibodies after separation by electrophoresis.

A further assay deals with T2, Flag-tagged ACVR1C (UniProt Q8NER5).
T2 sequence (looked up): T1 sequence (looked up)
Briefly: co-IP with Flag-tagged ACVR1C, immunoblot (FIG. 4).

Assay [2] has as its target T1, ACVR1C (activin receptor type-1C) (human). The experiment in a line: confocal microscopy, co-localization in SW480 cells (FIG. 5).
Assay [3] addresses T3, Fc-tagged ACVR1C extracellular domain (ACVR1C-ECD, AA 1-113) (Homo sapiens (Human)) (UniProt Q8NER5).
T3 sequence: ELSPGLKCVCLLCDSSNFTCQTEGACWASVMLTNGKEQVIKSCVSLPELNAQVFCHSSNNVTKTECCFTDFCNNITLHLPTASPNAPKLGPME
Briefly: pull-down with purified proteins (FIG. 6).

B1: Ha-tagged GREM1 (ligand, not shown: small tags and cut ends)
chain: KKKGSQGAIPPPDKAQHNDSEQTQSPQQPGSRNRGRGQGRGTAMPGEEVLESSQEALHVTERKYLKRDWCKTQPLKQTIHEEGCNSRTIINRFCYGQCNSFYIPRHIRKEEGSFQSCSFCKPKKFTTMMVTLNCPELQPPTKKKRVTRVKQCRCISIDLD
B1: the binding result in assay [1] is “binds”.

B2: GREM1 (ligand)
chain: B1 chain
For the molecule B2, the binding result (with Flag-tagged ACVR1C; in assay [2]) was “binds” throughout.

B3: his-tagged full-length GREM1 (ligand, not shown: small tags and cut ends)
chain: B1 chain
For B3, the binding result in assay [3] is listed as “binds”.
